Measurements from “University of Dundee, Small-Polar-MMV Screening Library” (2021), ChEMBL document CHEMBL3988442.

Mtb cholesterol medium: 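Growth of Mycobacterium tuberculosis over 4 days (cholesterol / DPPC medium with tyloxapol); the read-out is not stated. Concentration: 50 µM. Higher reads as more growth inhibition (inferred: compounds with an IC50 in retests scored well above the rest). About 69,000 compounds were tested under these conditions; 0.54% (about 370) showed 50% or more at least once.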
Mtb glucose medium: 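Phenotypic screen: M. tuberculosis growth, glucose 7H9 medium, 3 days; the read-out is not stated. Compounds at 50 µM. Higher reads as more growth inhibition (inferred: compounds with an IC50 in retests scored well above the rest). About 69,000 compounds were tested under these conditions; 1.1% (about 760) showed 50% or more at least once.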

The filed quantity is “Percent Effect” (%). The controls that fix the scale are not given in the record; negative values are as filed. Compounds were drawn at random from those tested, without regard to their results. Two or more numbers in one place are separate tests of the same structure; such repeats can differ widely.

Compound	Mtb cholesterol medium	Mtb glucose medium
CCn1cc(-c2cncn2CCc2ccc3c(c2)OCCO3)cn1.Cl	-40.6%	-22.56%
CC(C)c1ncncc1C(=O)N1CCN(Cc2ccsc2)CC1	20.65%	8.149%
Cc1nsc(N2CCN(CC(=O)N(C3CC3)C(C)C3CC3)CC2)n1 (stereo unspecified)	18.03%	3.327%
COc1cccc(OCCc2cncc(C(N)=O)c2)c1	12.71% & 5.665%	7.375% & 30.06%
COCCN(Cc1ccoc1)C(=O)c1ccc(Cl)s1	14.74%	32.57%
Cc1c(C(=O)N2CCN(c3ncccn3)CC2)n(C)c2ccc(Cl)cc12	13.08%	1.888% & 21.98%
N#CCCN(Cc1cccnc1)C(=O)c1ccc(-n2cnnn2)cc1	-26.44%	-33.76% & -6.839%
[H][C@@]12CN(Cc3cccnc3)C(=O)N1CCN(C1CCOCC1)C2	-25.83%	2.026% & 2.254%
COc1cc(OC)cc(N2CCC(NC(=O)c3ccc[nH]3)CC2)c1	-5.748%	29.85%
Cc1csc(N2CCN(CC(=O)Nc3c(C)n[nH]c3C)CC2C)n1 (stereo unspecified)	-12.15%	-39.8%
CCOCC1CCN(C(=O)C(c2c(F)cccc2F)N(C)C)CC1 (stereo unspecified)	-23.43%	-40.75% & -4.931%
CN(Cc1c(F)cccc1Cl)C(=O)Nc1cnn(CC(N)=O)c1	-20.43%	0.295% & -3.774%
[H][C@@]12CCN(C[C@@H]1CC)[C@@H](CNC(=O)Nc1cc(OC)cc(OC)c1)C2	28.18%	42.18% & 5.904%
O=C(O)c1ccccc1-n1cnc(CN2CCCc3ccccc32)c1	4.487%	2.981%
O=C(CSCc1ccccn1)NCC1CCN(C2CC2)C1 (stereo unspecified)	-5.475%	11.37%
CCNC(=O)[C@@H]1C[C@@H](N)CN1Cc1ccc(Sc2ccc(C)cc2)o1	4.463%	34.53%
CCc1oc(C(=O)NCCNS(C)(=O)=O)cc1CN1CCCC1	10.49%	-17.72%
O=C(NCC1(O)CCC1)NC(c1cc(F)ccc1F)C1CC1 (stereo unspecified)	18.36%	12.97%
COc1ccc(CC(=O)N2CCCC(n3nc(C)cc3C)C2)cc1 (stereo unspecified)	-5.17%	1.539%
[H][C@@]12CC[C@H](Oc3ccccc3F)[C@]1([H])CN(C(=O)COCCOC)C2	-36.13%	5.575%
CCOCCCn1c(NC(=O)c2scnc2C)nc2ccccc21	14.89%	54.96%
Cc1noc(C)c1CNC(=O)N1CCC(C(O)c2ccccc2)CC1 (stereo unspecified)	-9.11%	20.53%
N#Cc1ccc(N2CCC3(CC2)COCCN3Cc2cccnc2)cc1.O=C(O)C(F)(F)F	9.976%	-3.829% & 37.87%
CS(=O)(=O)CC1CCCN(c2ncnc3c2Cc2ccccc2OC3)C1 (stereo unspecified)	5.717%	6.569% & 2.152%
COc1cccc(CN2CCN(CC(C)C)C(=O)C2C)c1O (stereo unspecified)	5.044%	7.881%
Cc1nc(Nc2nnc(C)s2)cc(C2CCCN2)n1.Cl (stereo unspecified)	4.257% & 14.83%	-25.8%
Cc1cc(C)c2c(NCC3(O)CCCCC3)ncnc2n1	-3.611%	4.117%
O=C(NC1CCN(CC2CC2)C1)c1ccc(N2CCC(O)CC2)cc1 (stereo unspecified)	-29.87% & 0.994%	-23.66%
C[S+]([O-])c1nncn1CC(=O)c1ccc(Cl)c(Cl)c1 (stereo unspecified)	5.592%	17.77%
CCCN(C)CC1CCN(c2ccc(Br)c(C)n2)C1 (stereo unspecified)	34.99%	28.32% & 23.19%
CCc1noc(CN2CCN(C(=O)COC)CC2)n1	-20.61%	-40.42%
Cc1nc(C)c(C)c(N2CCC3(CCOC3)C2)n1 (stereo unspecified)	23.57%	-5.038%
CC(C)(C)c1cc(CN2CC[C@@H](NC(=O)c3cccnc3)[C@H](O)C2)n[nH]1	-12.97%	6.868% & 5.575%
NC(=O)c1cn(CC2CC2)c(C2CC2)n1	4.112%	19.52% & -5.568%
CCn1cc(CNC(C)c2noc(-c3ccc(Cl)cc3)n2)cn1 (stereo unspecified)	19.72%	9.531% & 31.14%
CCC1CCCCN1C(=O)Cn1nc(-c2ccc(C)o2)cc(N)c1=O (stereo unspecified)	12.11% & -2.401%	12.4%
Cc1cc2nc(C3CCCCC3)c(-c3ccnc(NCCO)n3)cn2n1	-3.288%	16.63%
Cn1cc(C2COC3(CCN(C(=O)c4ccn(C)n4)CC3)C2)cn1 (stereo unspecified)	10.18% & -15.73%	0.2485%
CN(C)C[C@@H]1CN(C2CCN(c3ccc(Cl)cc3)CC2)C[C@@H]1CO	2.667%	29.03%
CN(C(=O)c1ccc(C#N)cc1)C1CCN(c2ccccn2)CC1	-20.03%	-28.37%
Cc1cc2nccc(C3CCN(C(=O)c4ccccc4F)CC3)n2n1	12.86%	28.6%
CCn1cnnc1C1CCN(C(=O)COc2ccccc2)CC1	1.467%	1.458%
Cc1ccc(C(CNCc2nccn2C)N2CCOCC2)s1 (stereo unspecified)	2.255%	-22.88% & -8.103%
O=C(O)C(F)(F)F.O=C(O)C(F)(F)F.[H][C@@]12CN(CC3CCOCC3)C[C@]1([H])OCCN2c1ncccn1	2.705%	-5.676%
CNC(=O)[C@@H](CC(C)C)N1CCC[C@H]1C(=O)N(C)Cc1ccccc1.Cl	1.025%	-4.948% & 4.117%
CCN(CC)C(=O)CN1CCC2(C=Cc3cc(Cl)c(C)cc3O2)CC1	24% & 40.13%	19.67%
CSc1ccc(CNC(c2ccccc2F)c2nccn2C)cc1.Cl (stereo unspecified)	-1.397%	11.97%
Cc1ccc2c(c1)OC(C)CN2C(=O)Cc1ccc(C)nc1 (stereo unspecified)	26.36%	-5.349%
CC(C)S(=O)(=O)NCC1CCCN(C(=O)c2ccc3c(c2)CCC3)C1 (stereo unspecified)	-11.7%	-4.067% & 9.692%
Cn1cc(N2CCC3(CCN(Cc4nccs4)C3)C2=O)cn1.O=C(O)C(F)(F)F (stereo unspecified)	-8.565%	-17.52%
[H][C@@]12CS(=O)(=O)C[C@]1([H])N(Cc1ncc[nH]1)CCN2Cc1ccc(CC)cn1	-11.57%	6.541%
Cc1cc(F)ccc1CCNC(=O)NCC(C)N1CCOCC1 (stereo unspecified)	-22.03%	13.94%
COc1ccc(CN2CC[C@H](NC(C)=O)[C@@H](O)CC2)c(F)c1	16.4%	19.96%
CCc1ccc(CNc2cc(N3CCCC3CO)ncn2)s1 (stereo unspecified)	34.08%	26.97%
CCS(=O)(=O)N1CCC(n2nc(-c3cc(C)oc3C)ccc2=O)CC1	-26.48%	-20.28%
N[C@@H](Cc1c[nH]cn1)C(=O)N1CCC(Oc2ccc(F)cc2)CC1	5.649%	36.81%
CC(=O)Nc1nc(C)c(S(=O)(=O)NCCc2ccccn2)s1	-9.127%	-8.195%
O=C1CCC2(CCOC2)CN1Cc1nncn1CCc1ccccc1 (stereo unspecified)	-18.44%	-22.01%
CC(Cn1cccn1)NCCS(=O)(=O)c1ccccc1 (stereo unspecified)	19.74%	13.51%
OCc1ccc(CNc2ccccc2CN2CCC(O)CC2)o1	20.02%	8.623%
CC(=O)N1CCCC(C(=O)NCCc2csc(-c3ccncc3)n2)C1 (stereo unspecified)	-39.61%	-1.081%
NC(=O)c1ccc(NC2CCOC3(CCCC3)C2)nn1 (stereo unspecified)	-27.48%	-21.47%
[H][C@]12CC[C@@]3(N=C(C)N(CC4CC4)C3=O)[C@@]1([H])CN(S(=O)(=O)CC(C)C)C2	-22.89%	-18.83%
O=C(O)C(F)(F)F.[H][C@@]12CCN(C(=O)c3ccc[nH]3)[C@@]1([H])CC(=O)N2CCN1CCCC1	11.08%	-7.944%
CC1N(C)C(=O)COC12CCN(C(=O)CCc1ccccc1)CC2 (stereo unspecified)	-8.421%	-24.78% & -0.1435%

Some entries from above, unchanged:

* Cn1cc(C2COC3(CCN(C(=O)c4ccn(C)n4)CC3)C2)cn1 (stereo unspecified) | Mtb cholesterol medium: 10.18% & -15.73%; Mtb glucose medium: 0.2485%
* CC(=O)Nc1nc(C)c(S(=O)(=O)NCCc2ccccn2)s1 | Mtb cholesterol medium: -9.127%; Mtb glucose medium: -8.195%
* CCCN(C)CC1CCN(c2ccc(Br)c(C)n2)C1 (stereo unspecified) | Mtb cholesterol medium: 34.99%; Mtb glucose medium: 28.32% & 23.19%
* O=C(NCC1(O)CCC1)NC(c1cc(F)ccc1F)C1CC1 (stereo unspecified) | Mtb cholesterol medium: 18.36%; Mtb glucose medium: 12.97%
* NC(=O)c1cn(CC2CC2)c(C2CC2)n1 | Mtb cholesterol medium: 4.112%; Mtb glucose medium: 19.52% & -5.568%
* CCc1oc(C(=O)NCCNS(C)(=O)=O)cc1CN1CCCC1 | Mtb cholesterol medium: 10.49%; Mtb glucose medium: -17.72%